# Percent effect of library compounds

The filed quantity is “Percent Effect” (%). How 0% and 100% were set is not recorded. Most values in the screen are low, and negative values occur. Compounds were drawn at random from those tested, without regard to their results.

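Whole-parasite assay of Trypanosoma brucei over 72 hours; the read-out is not stated. Compounds at 30 µM. Higher reads as stronger inhibition (inferred: compounds with an IC50 in retests scored well above the rest). Values scatter widely below zero; nearly all retest evidence comes from the higher of the two concentrations used. Size under these conditions: about 64,000 compounds, about 940 of them at 50% or above in at least one test.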

{"structure": "CC(C)(NCC(=O)NC(=O)NC1CC1)c1ccc2c(c1)OCO2", "effect": 1.407}
{"structure": "CN(Cc1ccccc1C#N)C1CCN(CCc2ccccn2)CC1", "effect": -10.34}
{"structure": "O=C(O)C(F)(F)F.O=C(O)C(F)(F)F.[H][C@]12CCC[C@@]1(COCc1ccncc1)CN(C(=O)c1ccc(C)nc1)C2", "effect": -66.27}
{"structure": "CCc1nccn1C1CCCN(C(=O)c2ccc(N(C)C)nn2)C1", "stereo": "centres undefined", "effect": -7.508}
{"structure": "Fc1ccc(CN2CCCC(c3cc4ncccc4[nH]3)C2)cc1", "stereo": "centres undefined", "effect": 55.67}
{"structure": "COc1ccc(CN2CCC3(CCN(c4cccnc4)C3=O)C2)cc1.O=C(O)C(F)(F)F.O=C(O)C(F)(F)F", "stereo": "centres undefined", "effect": -16.73}
{"structure": "c1cnnc(N2CCCC2CNCc2nc3ccccc3o2)c1", "stereo": "centres undefined", "effect": -7.368}
{"structure": "COc1ccc(CC(=O)N2CCCC(n3cc(C)cn3)C2)c(OC)c1", "stereo": "centres undefined", "effect": -5.787}
{"structure": "COCCN(C/C=C/c1ccccc1)Cc1nccs1", "effect": -28.49}
{"structure": "CC(Cc1cccc(Cl)c1)NC(=O)Nc1cnn(CC(N)=O)c1", "stereo": "centres undefined", "effect": -9.655}
{"structure": "O=C(CS(=O)(=O)Cc1ccccc1)NCc1ccccc1F", "effect": -37.08}
{"structure": "CN(Cc1cccnc1)C1CC2(CCN(C(=O)c3ccnnc3)CC2)C1", "effect": -4.343}
{"structure": "Cc1cc(C(=O)N2CCc3nc(C4CCCN4)ncc3C2)cs1.Cl", "stereo": "centres undefined", "effect": -23.19}
{"structure": "CN(C)C(CNC(=O)NCCS(C)(=O)=O)c1ccco1", "stereo": "centres undefined", "effect": -6.05}
{"structure": "Cc1nc2c(c(=O)n1C)CN(C(=O)C1CCCN(C(=O)N(C)C)C1)C2", "stereo": "centres undefined", "effect": -19}
{"structure": "[H][C@@]12CCC(=O)N(CC(C)C)[C@]1([H])CCN(Cc1ncc[nH]1)C2", "effect": -2.979}
{"structure": "c1ccc(-n2nnnc2CNCC2CCCN2c2cccnn2)cc1", "stereo": "centres undefined", "effect": 16.74}
{"structure": "Cn1ncc2c(=O)[nH]c(CN(Cc3cccc(F)c3)C3CC3)nc21", "effect": 21.1}
{"structure": "O=C(NCc1ccc(CN2CCCC2)cc1)NCc1ccon1", "effect": -30.44}
{"structure": "Cc1cc(C)c(CNC(=O)NCCCNc2ccccn2)c(=O)[nH]1", "effect": -57.53}
{"structure": "Cc1nc(C)n(CC2CN(Cc3cccc(OC(C)C)c3)CCO2)n1", "stereo": "centres undefined", "effect": 2.878}
{"structure": "COc1cc(-c2cc(C3CCOC3)c(C#N)c(N)n2)ccc1O", "stereo": "centres undefined", "effect": -45.84}
{"structure": "CN(C(=O)COc1ccc(F)cc1)[C@@H]1CC[C@@H](n2ccnc2)[C@@H]1O", "effect": -4.385}
{"structure": "Cc1nnc(Cn2cc(I)cc(C)c2=O)o1", "effect": -41.98}
{"structure": "O=C(CCc1ccccn1)NCC(O)c1ccc(Cl)cc1Cl", "stereo": "centres undefined", "effect": 2.494}
{"structure": "COc1c(C2CCCN2C(=O)c2ccoc2)c(C)nn1C", "stereo": "centres undefined", "effect": -51.6}
{"structure": "COC(=O)C1CCCN1C(=O)c1cc(CC(C)C)no1", "stereo": "centres undefined", "effect": -20.84}
{"structure": "CC(Cn1cccn1)NC(=O)N(C)Cc1ccc(Cl)s1", "stereo": "centres undefined", "effect": 7.238}
{"structure": "Cc1nccc(-c2ccccc2)c1C(=O)N1CC[C@](C)(O)C(C)(C)C1", "effect": -12.93}
{"structure": "Cc1ccc(CN2CCC3(CCC3NC(=O)c3ccn(C)c3)CC2)s1.O=C(O)C(F)(F)F", "stereo": "centres undefined", "effect": -8.436}
{"structure": "Cn1c(C2CC2)nc2c1CCN(CCOc1cccc(F)c1)C2", "effect": 33.25}
{"structure": "CCC(C)C(=O)N(Cc1ccccn1)C1CC1", "stereo": "centres undefined", "effect": -102.1}
{"structure": "Cc1c(C(=O)NC(C)C)nnn1-c1cccc(C(F)(F)F)c1", "effect": -0.7608}
{"structure": "Cc1nc(CN2CCCN(CCCc3ccccc3)CC2)no1", "effect": -16.86}
{"structure": "CN(C1CCN(c2ccccn2)CC1)S(=O)(=O)N1CCOCC1", "effect": -7.524}
{"structure": "O=C(O)C(F)(F)F.[H][C@@]12C[C@@H](C(=O)NC(C)C)C[C@@]1([H])N(Cc1cnn(C)c1)CCO2", "effect": -19.76}
{"structure": "O=C(Cc1ccc(F)c(F)c1)NC1COc2ccccc2C1=O", "stereo": "centres undefined", "effect": 53.93}
{"structure": "CC(C)N(C)CCCNC(=O)c1cnn(C(C)(C)C)c1C(F)(F)F", "effect": -21.84}
{"structure": "COc1ncccc1C(=O)N1CCc2c(ncnc2N2CCOCC2)C1", "effect": -3.29}
{"structure": "Cc1ccnn1CC(=O)N1CCCN(C2Cc3ccccc3C2)CC1", "effect": -118.4}
{"structure": "CC1CN(C(=O)c2sccc2Br)CCO1", "stereo": "centres undefined", "effect": -43.11}
{"structure": "CC(C)c1cc(C(=O)N[C@H]2CN(C3CCOCC3)C[C@@H]2C2CC2)no1", "effect": -22.44}
{"structure": "CN(C)c1ncccc1NC(=O)C1CN(Cc2ccccc2)CCO1", "stereo": "centres undefined", "effect": 0.2955}
{"structure": "CNc1cncc(C2CCCN2Cc2ccnc(N3CCCC3)n2)n1", "stereo": "centres undefined", "effect": 8.557}
{"structure": "O=C(COc1cccc(Br)c1)N1CCOCC1c1ncon1", "stereo": "centres undefined", "effect": 6.402}
{"structure": "O=S(=O)(NCCNc1ccc(-n2cccn2)nn1)c1ccccc1", "effect": 4.205}
{"structure": "Cc1nc(CN2CCCC(N(C)CC3CCCC3)C2)no1", "stereo": "centres undefined", "effect": -21.28}
{"structure": "O=C1NCC2(CCCN(C(=O)c3c[nH]nc3-c3cccs3)C2)O1", "stereo": "centres undefined", "effect": -10.57}
{"structure": "Cn1ccc2c(C(=O)N3CCCC3c3noc(C4CC4)n3)cccc21", "stereo": "centres undefined", "effect": -10.6}

The last 6 entries again:

Result for CNc1cncc(C2CCCN2Cc2ccnc(N3CCCC3)n2)n1 (centres undefined) was 8.557%.
Result for O=C(COc1cccc(Br)c1)N1CCOCC1c1ncon1 (centres undefined) was 6.402%.
Result for O=S(=O)(NCCNc1ccc(-n2cccn2)nn1)c1ccccc1 was 4.205%.
Result for Cc1nc(CN2CCCC(N(C)CC3CCCC3)C2)no1 (centres undefined) was -21.28%.
Result for O=C1NCC2(CCCN(C(=O)c3c[nH]nc3-c3cccs3)C2)O1 (centres undefined) was -10.57%.
Result for Cn1ccc2c(C(=O)N3CCCC3c3noc(C4CC4)n3)cccc21 (centres undefined) was -10.6%.

The values are deposited in ChEMBL (CHEMBL3988442, “University of Dundee, Small-Polar-MMV Screening Library” (2021)).